Experimental data as given in PubChem BioAssay AID651660 (Broad Institute, 2012).
Several values for one entry are separate records, joined by “and”; a condition that tells them apart may be missing. Equal values may be shown once. The campaign covered roughly 1,900 compounds. About 15 (0.8%) were called active.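 Rule for the calls: active = every replicate shows at least 50% inhibition; inconclusive = mean inhibition at least 50% but some replicate below; inactive = the rest.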 The list shows a part of the results.

By UniProt entry, the sequences of proteins in these tests, tags left out. Where a name states a change or a piece, a line headed by the entry shows the natural chain unless it says otherwise.
UniProt P43351: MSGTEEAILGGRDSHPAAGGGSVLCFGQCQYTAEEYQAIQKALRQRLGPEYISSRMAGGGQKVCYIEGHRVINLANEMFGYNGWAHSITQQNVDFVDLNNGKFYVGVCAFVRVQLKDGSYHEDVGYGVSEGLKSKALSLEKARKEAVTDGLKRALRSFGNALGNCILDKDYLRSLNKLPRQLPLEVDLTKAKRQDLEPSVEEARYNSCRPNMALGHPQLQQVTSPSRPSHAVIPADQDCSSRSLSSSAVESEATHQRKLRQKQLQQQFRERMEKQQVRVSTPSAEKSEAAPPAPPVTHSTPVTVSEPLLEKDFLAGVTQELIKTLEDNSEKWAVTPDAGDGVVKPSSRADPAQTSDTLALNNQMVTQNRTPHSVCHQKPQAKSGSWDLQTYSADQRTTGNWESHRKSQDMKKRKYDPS

Each compound was assayed against DNA repair protein RAD52 homolog (Homo sapiens) (UniProt P43351) (assay: inhibition of RAD52-mediated strand annealing – biochemical, FRET, single point, primary screen (AID 651660;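 note: 0% = median of neutral control wells and 100% = median of positive control wells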)). Details: Recombinant RAD52 ssDNA annealing, FRET fluorescence, 30 min; at 18.7 µM; active compounds read high.

inhibition, inactive:
COc1cc2c3c(c1)C(C)CC(C)(C)N3C(=O)C2=O (stereo not given) 1.43%
S=C(c1ccc2c(c1)OCO2)N1CCCCC1 -4.41%
CC(=O)Nc1ccccc1O -6.34%
O=c1cc(Cn2ccnc2)c2cc3c(cc2o1)CCC3 -1.32%
CCOC(=O)c1cnc2ccc(C(=O)OC)cc2c1Nc1ccc2c(c1)OCCO2 0.862%
O=c1oc2c(CN3CCN(CCO)CC3)c(O)ccc2cc1-c1ccccn1 -38.1%
c1ccc(CN(CC2=NCCN2)c2ccccc2)cc1 -3% and 4.73%
Cc1cccc(NC(=O)c2cc3ccccc3o2)c1 2.23%
O=C(NCCN1CCN(c2ccccc2)CC1)c1cccc(Br)c1 2.9%
CC(C)CN1CCN(Cc2ccc3ncccc3c2)CC1CCO (stereo not given) 2.42%
CCOc1ccc(CCn2c(-c3ccco3)nc3ccccc3c2=O)cc1OCC -6.6%
COc1ccc(/C=C2\CCn3c2nc2cc(C(=O)O)ccc2c3=O)cc1OC -4.24%
COc1ccc(S(=O)(=O)N2CCN(C(=O)COc3ccc4c(C)cc(=O)oc4c3)CC2)cc1 -4%
COc1cc(/C=C/C(=O)N2CCCC2)cc(OC)c1OC -3.32%
COc1cc2cc(C)nc(Cc3cccc4ccccc34)c2cc1OC 23.2%
CC(=O)C1=C(O)C(=O)N(Cc2cccnc2)C1c1ccc(C(C)C)cc1 (stereo not given) 0.222%
CCN(CC)CCNC(=O)c1ccc(N)cc1 5.09%
C[N+](C)(C)CCCC(=O)c1ccc2c(c1)OCO2 -9.63%
OC[C@@H](O)[C@@H](O[C@H]1O[C@H](CO)[C@@H](O)[C@H](O)[C@H]1O)[C@H](O)[C@@H](O)CO 2.34%
COC(=O)c1ccccc1OCCOCCOc1cccc2ccc(C)nc12 -4.32%
O=C(CCCN1C(=O)/C(=C\c2cccc(Br)c2)SC1=S)Nc1cccnc1 -2.49%
COCC(C)NC(=O)c1ccc(CN2CCc3ccccc3C2)cc1 (stereo not given) -0.269%
C[C@@H]1CCC[C@H](C)N1NC(=O)c1ccc(Cl)c(S(N)(=O)=O)c1 -0.341%
CC(C)C(CCN1C(=O)CCC1=O)C1CCOC(C)(C)C1 (stereo not given) 3.26%
Cc1ccc2[nH]c3c(=O)n(CCCN4CCN(C)CC4)cnc3c2c1 -15.8%
COc1ccc(C(=O)[C@H]2[C@H]3C(=O)N(c4ccccc4)C(=O)[C@H]3C3C=CC=NN32)cc1 (stereo not given in full) -45.1%
CC(C)[C@H](NC(=O)[C@@H]1CSCN1C(=O)OC(C)(C)C)C(=O)NCC1CCC(C(=O)O)CC1 (stereo not given in full) -15.1%
Cc1ccc2c(c1)c1c3n2CCCN(Cc2ccccc2)C3CCC1 (stereo not given) 3.99%
CCc1c(C)c2ccc(OCC(=O)OC(C)C)c(C)c2oc1=O -3.63%
COc1ccc(C2OC(=O)Cc3cc(OC)c(OC)cc32)cc1 (stereo not given) 4.68%
Cc1ccc(C(=O)Nc2ccc(O)cc2C(=O)O)cc1C -17%
CCc1cc(/C(Cc2ccccn2)=N\O)c(O)cc1O -33.7%
CCc1cc(-c2[nH]ncc2-c2ccc3c(c2)OCO3)c(O)cc1O -4.46%
CC(/C=C1\SC(=O)N(CCCC(=O)O)C1=O)=C\c1ccccc1 -7.27%
O=C(O)c1ccc(N2C(=O)/C(=C\c3ccccc3)N=C2c2ccccc2)cc1 -4.94%
COC(=O)c1ccc(CC(=O)c2ccc(O)cc2O)o1 -113%
CO[C@H]1C=CO[C@@]2(C)Oc3c(C)c(O)c4c(O)c(c(C=NN5CCN(C)CC5)c(O)c4c3C2=O)NC(=O)C(C)=CC=C[C@H](C)[C@H](O)[C@@H](C)[C@@H](O)[C@@H](C)[C@H](OC(C)=O)[C@@H]1C -34.4%
CC(=O)Nc1nnc(S(N)(=O)=O)s1 -5.46%
CC(C)Oc1ccc2c(=O)c(-c3ccccc3)coc2c1 4.85%
COc1cc2[nH]c3c(=O)n(CCN4CCOCC4)cnc3c2cc1OC 1.23%
CC(C)N(C(=O)Cc1ccccc1[N+](=O)[O-])C(C)C -1.14%
COc1cc(CNCCc2c[nH]c3ccccc23)cc(Cl)c1OCC(N)=O 17.5%
FC(F)(F)c1ccc(-c2noc(CN3CCCN(C4CCCCC4)CC3)n2)cc1 -1.45%
COc1ccc(Cl)cc1C(=O)NCCc1ccc(S(=O)(=O)NC(=O)NC2CCCCC2)cc1 -27.1%
CC(=O)OCC(=O)C1=CCC2C3CCC4=CC(=O)C=CC4(C)C3(F)C(OC(C)=O)CC12C (stereo not given) 4.74%
CC#C[C@]1(O)CC[C@H]2[C@@H]3CCC4=CC(=O)CCC4=C3[C@@H](c3ccc(N(C)C)cc3)C[C@@]21C 30%
COc1ccc(/C=C2\CCc3ccccc3C2=O)c(OC)c1OC -4.76%
COc1ccc(CCNC(=O)CC(c2ccccc2)c2cccc(C)c2O)cc1OC (stereo not given) -4.76%
CCOC(=O)C1=C(N)Oc2c(c(=O)[nH]c3ccccc23)C1c1ccccc1 (stereo not given) -0.528%
CC1(C)O[C@@H]2C[C@H]3[C@@H]4C[C@H](F)C5=CC(=O)C=C[C@]5(C)[C@@]4(F)[C@@H](O)C[C@]3(C)[C@]2(C(=O)CO)O1 -3.92%
O=C(c1ccc(Cl)cc1)C1CCCN(C(=O)/C=C/c2ccccn2)C1 (stereo not given) 6.47%
COc1cc(OC)cc(C(=O)N[C@@H](CCSC)c2nc3ccccc3[nH]2)c1 -2.08%
Cc1ccc(C(=O)COC(=O)c2cnccn2)cc1[N+](=O)[O-] 12.6%
NC12CC3CC(C1)CC(O)(C3)C2 3.29%
COc1cc2c(cc1OC)CN(Cc1ccc(C)s1)CC2 -2.17%
Cc1[nH]c2ccccc2c1C(=O)CN1CCCC1 -20.7%
NC[C@H]1O[C@H](O[C@H]2[C@H](O)[C@@H](O[C@H]3O[C@H](CO)[C@@H](O)[C@H](N)[C@H]3O)[C@H](N)C[C@@H]2N)[C@H](N)C[C@@H]1O 0.0915%
CC(C)C1Cc2[nH]c(=O)c(C(=O)O)cc2CO1 (stereo not given) -0.098%
CC1(C)Cc2nc3sc4c(=O)n(CC(N)=O)cnc4c3cc2CO1 -0.15%
Cc1cc(C(C)(C)C)cc(C)c1CC1=NCCN1 -10.1%
CCN(CCCCOC(=O)c1ccc(OC)c(OC)c1)C(C)Cc1ccc(OC)cc1 (stereo not given) 4.27%
COC(=O)c1cc(COc2ccc3ccc(=O)oc3c2)c(C)o1 -0.407%
C[C@@H]1C[C@H]2[C@@H]3CCC4=CC(=O)C=C[C@]4(C)[C@@]3(F)[C@@H](O)C[C@]2(C)[C@H]1C(=O)CO 3.64%
COc1cc2nc(N3CCN(C(=O)C4COc5ccccc5O4)CC3)nc(N)c2cc1OC (stereo not given) 44.2%
Cc1csc(N)n1 -4.07%
CCCNC(=O)NS(=O)(=O)c1ccc(Cl)cc1 2.05%
CC(=O)O[C@]1(C(C)=O)CC[C@H]2[C@@H]3C=C(Cl)C4=CC(=O)CC[C@]4(C)[C@H]3CC[C@@]21C -5.12%
COc1ccc(O)c(C2=Nc3ccccc3N=C(c3ccccc3)C2)c1 0.319%
NC(N)=NC(N)=Nc1ccc2ccccc2c1 -2.56%
Cc1cc(C(=O)NC(CC(C)C)C(=O)O)cc(C)c1[N+](=O)[O-] (stereo not given) -12.7%
COc1ccc(C(=O)N2c3cc4c(cc3C(C)=CC2(C)C)OCO4)cc1 3.89%
CC(C)CN(C)Cc1c(C(=O)N2CCc3ccccc3C2)nc2ccc(Cl)cn12 -3.09%
COc1ccc(CCn2c(C)cc3c(c2=O)C(c2ccncc2)C(C#N)=C(N)O3)cc1OC (stereo not given) -0.311%
CC1(C)C2CCC1(C)C(OCC[N+](C)(C)CC(=O)OC1CCCCC1)C2 (stereo not given) 31.8%
Cc1ncc(CN2CCC(CO)(CCc3ccccc3)CC2)s1 -2.85%
O=C(/C=C/c1ccccc1)NCC1(c2ccccc2)CCOCC1 1.9%
CC(=O)OC[C@H]1O[C@@H](Sc2cccc3cccnc23)[C@H](OC(C)=O)[C@@H](OC(C)=O)[C@H]1OC(C)=O -3.92%
Nc1nc2c(ncn2COC(CO)CO)c(=O)[nH]1 -6.89%
CCOc1ccc(N2C(=O)CNC2=S)cc1 -8.92%
CNCCc1ccccn1 0.0195%
CC(C)CC(NC(=O)c1cccc(Cl)c1)C(=O)O (stereo not given) -8.58%
COc1ccccc1NC(=O)Cn1c(C)cc(=O)c2cccc(OC)c21 1.66%
CC(=O)[C@@]1(O)CC[C@H]2[C@@H]3CCC4=CC(=O)CC[C@]4(C)[C@H]3CC[C@@]21C -7.07%
CC(C)CC(=O)N(Cc1ccc(F)cc1)C1CCS(=O)(=O)C1 (stereo not given) -1.69%
COc1ccc(-c2nc3c(=O)n(C)c(=O)[nH]c3n2CCc2ccccc2)cc1 -5.16%
O=C(/C=C/c1ccc(Cl)cc1)NCCc1ccccc1 -0.594%
CCN(CC)C(=O)c1ccc(O)c(OC)c1 -10.5%
CC1(C)CC(NCc2ccccc2)CCO1 (stereo not given) -6.22%
O=C1c2ccccc2N2C(=O)c3ccccc3C2N1Cc1ccco1 (stereo not given) 3.92%
CC12CN3CC(C)(CN(C1)C3c1ccc([N+](=O)[O-])o1)C2 (stereo not given) -2.59%

At a glance, some entries already given:
inhibition, inactive:
COCC(C)NC(=O)c1ccc(CN2CCc3ccccc3C2)cc1 (stereo not given) -0.269%
C[C@@H]1CCC[C@H](C)N1NC(=O)c1ccc(Cl)c(S(N)(=O)=O)c1 -0.341%
CC(C)C(CCN1C(=O)CCC1=O)C1CCOC(C)(C)C1 (stereo not given) 3.26%
Cc1ccc2[nH]c3c(=O)n(CCCN4CCN(C)CC4)cnc3c2c1 -15.8%
COc1ccc(C(=O)[C@H]2[C@H]3C(=O)N(c4ccccc4)C(=O)[C@H]3C3C=CC=NN32)cc1 (stereo not given in full) -45.1%
CC(C)[C@H](NC(=O)[C@@H]1CSCN1C(=O)OC(C)(C)C)C(=O)NCC1CCC(C(=O)O)CC1 (stereo not given in full) -15.1%
Cc1ccc2c(c1)c1c3n2CCCN(Cc2ccccc2)C3CCC1 (stereo not given) 3.99%
CCc1c(C)c2ccc(OCC(=O)OC(C)C)c(C)c2oc1=O -3.63%
COc1ccc(C2OC(=O)Cc3cc(OC)c(OC)cc32)cc1 (stereo not given) 4.68%
Cc1ccc(C(=O)Nc2ccc(O)cc2C(=O)O)cc1C -17%
CCc1cc(/C(Cc2ccccn2)=N\O)c(O)cc1O -33.7%
CCc1cc(-c2[nH]ncc2-c2ccc3c(c2)OCO3)c(O)cc1O -4.46%
CC(/C=C1\SC(=O)N(CCCC(=O)O)C1=O)=C\c1ccccc1 -7.27%
O=C(O)c1ccc(N2C(=O)/C(=C\c3ccccc3)N=C2c2ccccc2)cc1 -4.94%
COC(=O)c1ccc(CC(=O)c2ccc(O)cc2O)o1 -113%
CO[C@H]1C=CO[C@@]2(C)Oc3c(C)c(O)c4c(O)c(c(C=NN5CCN(C)CC5)c(O)c4c3C2=O)NC(=O)C(C)=CC=C[C@H](C)[C@H](O)[C@@H](C)[C@@H](O)[C@@H](C)[C@H](OC(C)=O)[C@@H]1C -34.4%
CC(=O)Nc1nnc(S(N)(=O)=O)s1 -5.46%
CC(C)Oc1ccc2c(=O)c(-c3ccccc3)coc2c1 4.85%
